Data as given in patent US8076285B2 (Aicuris GmbH & Co. KG, priority 2006, dated 2011).

Test: general procedure: Fmoc solid-phase peptide synthesis; 2-chlorotrityl chloride resin (Iris Biotech), 0.85 mmol/g; TBTU/DIEA
Conditions: late stage modification step, trifluoroacetate

With “[3-Trimethylsilyl-D-alanyl]-[3-(3-pyridyl)-L-alanyl]-[(3R)-3-amino-L-phenylalanyl]-[(3R)-3-hydroxy-L-leucyl]-L-norleucyl-D-arginyl-L-isoleucyl-L-allothreonyl-glycyl-L-alanyl-L-serine C^1.11-N^3.3-lactam” the step yield (from compound 456A) was 47% of theory.
For “[3-Trimethylsilyl-D-alanyl]-[3-(3-pyridyl)-L-alanyl]-[(3R)-3-amino-L-phenylalanyl]-[(3R)-3-hydroxy-L-leucyl]-L-norvalyl-D-arginyl-L-isoleucyl-L-allothreonyl-glycyl-L-alanyl-L-serine C^1.11-N^3.3-lactam”, the step yield (from compound 457A) was 68% of theory.
In the case of “[3-Trimethylsilyl-D-alanyl]-[3-tert-butyl-L-alanyl]-[(3R)-3-amino-4-(dimethylamino-phenyl)-L-alanyl]-[(3R)-3-hydroxy-L-leucyl]-L-leucyl-D-arginyl-L-isoleucyl-L-allothreonyl-glycyl-[(3S)-3-hydroxy-L-asparaginyl]-L-serine C^1.11-N^3.3-lactam tristrifluoroacetate”, the step yield is reported as 56% of theory.
In the case of “[3-tert-Butyl-D-alanyl]-[3-tert-Butyl-L-alanyl]-[(3R)-3-amino-L-phenylalanyl]-[(3R)-3-hydroxy-L-leucyl]-L-leucyl-D-arginyl-L-isoleucyl-L-allothreonyl-glycyl-L-seryl-L-serine C^1.11-N^3.3-lactam bistrifluoroacetate”, the step yield is reported as 53% of theory.
With “[3-tert-Butyl-D-alanyl]-[3-tert-butyl-L-alanyl]-[(3R)-3-amino-3-(pyridin-3-yl)-L-alanyl]- [(3R)-3-hydroxy-L-leucyl]-L-leucyl-D-arginyl-L-isoleucyl-L-allothreonyl-glycyl-[(3S)-3-hydroxy-L-asparaginyl]-L-serine C^1.11-N^3.3-lactam” the step yield (from compound 470A) was 56% of theory.
With “[3-tert-Butyl-D-alanyl]-[3-tert-butyl-L-alanyl]-[(3R)-3-amino-L-leucyl]-[(3R)-3-hydroxy-L-leucyl]-L-leucyl-D-arginyl-L-isoleucyl-L-allothreonyl-glycyl-[(3R)-3-hydroxy-L-asparaginyl]-L-serine C^1.11-N^3.3-lactam” the step yield (from compound 445A) was 53% of theory.
In the case of “[3-tert-Butyl-D-alanyl]-[3-tert-butyl-L-alanyl]-[(3R)-3-amino-L-phenylalanyl]-L-threonyl-L-leucyl-D-arginyl-L-isoleucyl-L-allothreonyl-glycyl-L-serine C^1.11-N^3.3-lactam”, the step yield (from compound 433A) is reported as 17% of theory.
In the case of “[3-tert-Butyl-D-alanyl]-[3-tert-butyl-L-alanyl]-[(3R)-3-amino-L-phenylalanyl]-[(3R)-3-hydroxy-L-leucyl]-L-isoleucyl-D-arginyl-L-isoleucyl-L-allothreonyl-glycyl-L-seryl-L-serine C^1.11-N^3.3-lactam”, the step yield (from compound 450A) is reported as 70% of theory.
For “[3-tert-Butyl-D-alanyl]-[3-tert-butyl-L-alanyl]-[(3R)-3-amino-L-phenylalanyl]-[(3R)-3-hydroxy-L-leucyl]-L-leucyl-D-arginyl-L-isoleucyl-L-allothreonyl-D-alanyl-[(3S)-3-hydroxy-L-asparaginyl]-L-serine C^1.11-N^3.3-lactam bistrifluoroacetate”, the step yield was 65% of theory.
In the case of “[3-tert-Butyl-D-alanyl]-[3-tert-butyl-L-alanyl]-[(3R)-3-amino-L-phenylalanyl]-[(3R)-3-hydroxy-L-leucyl]-L-leucyl-D-arginyl-L-isoleucyl-L-allothreonyl-D-seryl-L-seryl-L-serine C^1.11-N^3.3-lactam”, the step yield (from compound 448A) is reported as 33% of theory.
In the case of “[3-tert-Butyl-D-alanyl]-[3-tert-butyl-L-alanyl]-[(3R)-3-amino-L-phenylalanyl]-[(3R)-3-hydroxy-L-leucyl]-L-leucyl-D-arginyl-L-isoleucyl-L-allothreonyl-glycyl-L-alanyl-L-serine C^1.11-N^3.3-lactam bistrifluoroacetate”, the step yield is reported as 20% of theory.
With “[3-tert-Butyl-D-alanyl]-[3-tert-butyl-L-alanyl]-[(3R)-3-amino-L-phenylalanyl]-[(3R)-3-hydroxy-L-leucyl]-L-leucyl-D-arginyl-L-isoleucyl-L-allothreonyl-glycyl-L-asparaginyl-L-serine C^1.11-N^3.3-lactam bistrifluoroacetate” the step yield (run 1) was 96.6% of theory and the step yield (run 2) was 93.5% of theory.
For “[3-tert-Butyl-D-alanyl]-[3-tert-butyl-L-alanyl]-[(3R)-3-amino-L-phenylalanyl]-[(3R)-3-hydroxy-L-leucyl]-L-leucyl-D-arginyl-L-isoleucyl-L-allothreonyl-glycyl-L-asparaginyl-L-serine-C^1.11-N^3.3-lactam-bis-trifluoroacetate”, the step yield was 3.5% of theory.
In the case of “[3-tert-Butyl-D-alanyl]-[3-tert-butyl-L-alanyl]-[(3R)-3-amino-L-phenylalanyl]-[(3R)-3-hydroxy-L-leucyl]-L-leucyl-D-arginyl-L-isoleucyl-L-allothreonyl-glycyl-L-ornithyl-L-serine C^1.11-N^3.3-lactam”, the step yield (from compound 441A) is reported as 6% of theory.
In the case of “[3-tert-Butyl-D-alanyl]-[3-tert-butyl-L-alanyl]-[(3R)-3-amino-L-phenylalanyl]-[(3R)-3-hydroxy-L-leucyl]-L-leucyl-D-arginyl-L-isoleucyl-L-allothreonyl-glycyl-L-phenyalanyl-L-serine C^1.11-N^3.3-lactam bistrifluoroacetate”, the step yield is reported as 50% of theory.
In the case of “[3-tert-Butyl-D-alanyl]-[3-tert-butyl-L-alanyl]-[(3R)-3-amino-L-phenylalanyl]-[(3R)-3-hydroxy-L-leucyl]-L-leucyl-D-arginyl-L-isoleucyl-L-allothreonyl-glycyl-[(2S)-2,3-diaminopropionyl]-L-serine C^1.11-N^3.3-lactam”, the step yield (from compound 432A) is reported as 44% of theory.
In the case of “[3-tert-Butyl-D-alanyl]-[3-tert-butyl-L-alanyl]-[(3R)-3-amino-L-phenylalanyl]-[(3R)-3-hydroxy-L-leucyl]-L-leucyl-D-arginyl-L-isoleucyl-L-allothreonyl-glycyl-[(2S)-2,4-diaminobutyryl]-L-serine C^1.11-N^3.3-lactam”, the step yield (from compound 444A) is reported as 10% of theory.
With “[3-tert-Butyl-D-alanyl]-[3-tert-butyl-L-alanyl]-[(3R)-3-amino-L-phenylalanyl]-[(3R)-3-hydroxy-L-leucyl]-L-leucyl-D-arginyl-L-isoleucyl-L-allothreonyl-glycyl-[(3S)-3-hydroxy-L-asparaginyl]-L-alanine C^1.11-N^3.3-lactam bistrifluoroacetate” the step yield was 36% of theory.
For “[3-tert-Butyl-D-alanyl]-[3-tert-butyl-L-alanyl]-[(3R)-3-amino-L-phenylalanyl]-[(3R)-3-hydroxy-L-leucyl]-L-leucyl-D-arginyl-L-isoleucyl-L-allothreonyl-glycyl-[L-threonyl]-L-serine C^1.11-N^3.2-lactam bistrifluoroacetate”, the step yield was 27% of theory.
In the case of “[3-tert-Butyl-D-alanyl]-[3-tert-butyl-L-alanyl]-[(3R)-3-amino-L-phenylalanyl]-[(3R)-3-hydroxy-L-leucyl]-L-leucyl-D-arginyl-L-isoleucyl-L-allothreonyl-glycyl-glycyl-L-serine C^1.11-N^3.3-lactam”, the step yield (from compound 455A) is reported as 7% of theory.
For “[3-tert-Butyl-D-alanyl]-[3-tert-butyl-L-alanyl]-[(3R)-3-amino-L-phenylalanyl]-[(3R)-3-hydroxy-L-leucyl]-L-leucyl-D-arginyl-L-isoleucyl-L-leucyl-glycyl-L-seryl-L-serine C^1.11-N^3.3-lactam”, the step yield (from compound 452A) was 46% of theory.
With “[3-tert-Butyl-D-alanyl]-[3-tert-butyl-L-alanyl]-[(3R)-3-amino-L-phenylalanyl]-[(3R)-3-hydroxy-L-leucyl]-L-leucyl-D-arginyl-L-isoleucyl-L-seryl-glycyl-L-seryl-L-serine C^1.11-N^3.3-lactam” the step yield (from compound 436A) was 54% of theory.
For “[3-tert-Butyl-D-alanyl]-[3-tert-butyl-L-alanyl]-[(3R)-3-amino-L-phenylalanyl]-[(3R)-3-hydroxy-L-leucyl]-L-leucyl-D-arginyl-L-isoleucyl-L-seryl-glycyl-[(3S)-3-hydroxy-L-asparaginyl]-L-serine C^1.11-N^3.3-lactam bistrifluoroacetate”, the step yield was 35% of theory.
In the case of “[3-tert-Butyl-D-alanyl]-[3-tert-butyl-L-alanyl]-[(3R)-3-amino-L-phenylalanyl]-[(3R)-3-hydroxy-L-leucyl]-L-leucyl-D-arginyl-L-isoleucyl-L-valyl-glycyl-L-seryl-L-serine C^1.11-N^3.3-lactam”, the step yield (from compound 449A) is reported as 10% of theory.
In the case of “[3-tert-Butyl-D-alanyl]-[3-tert-butyl-L-alanyl]-[(3R)-3-amino-L-phenylalanyl]-[(3R)-3-hydroxy-L-leucyl]-L-leucyl-D-arginyl-L-leucyl-L-allothreonyl-glycyl-L-seryl-L-serine C^1.11-N^3.3-lactam”, the step yield (from compound 438A) is reported as 11% of theory.
In the case of “[3-tert-Butyl-D-alanyl]-[3-tert-butyl-L-alanyl]-[(3R)-3-amino-L-phenylalanyl]-[(3R)-3-hydroxy-L-leucyl]-L-leucyl-D-arginyl-L-phenylalanyl-L-allothreonyl-glycyl-L-seryl-L-serine C^1.11-N^3.3-lactam”, the step yield (from compound 442A) is reported as 67% of theory.
In the case of “[3-tert-Butyl-D-alanyl]-[3-tert-butyl-L-alanyl]-[(3R)-3-amino-L-phenylalanyl]-[(3R)-3-hydroxy-L-leucyl]-L-leucyl-D-arginyl-L-valyl-L-allothreonyl-glycyl-L-seryl-L-serine C^1.11-N^3.3-lactam”, the step yield (from compound 437A) is reported as 44% of theory.
